Data reported in the supplement of paper PMC11006884.
The targets with a hit were mostly taken out for another list; the other results follow. Single values of this set are uncertain. Only a part is listed here, and it is no random draw.

The chains behind the UniProt entries cited, without tags or fusion partners. Where a name states a change or a piece, a line headed by the entry shows the natural chain unless it says otherwise.
UniProt Q8NEZ2: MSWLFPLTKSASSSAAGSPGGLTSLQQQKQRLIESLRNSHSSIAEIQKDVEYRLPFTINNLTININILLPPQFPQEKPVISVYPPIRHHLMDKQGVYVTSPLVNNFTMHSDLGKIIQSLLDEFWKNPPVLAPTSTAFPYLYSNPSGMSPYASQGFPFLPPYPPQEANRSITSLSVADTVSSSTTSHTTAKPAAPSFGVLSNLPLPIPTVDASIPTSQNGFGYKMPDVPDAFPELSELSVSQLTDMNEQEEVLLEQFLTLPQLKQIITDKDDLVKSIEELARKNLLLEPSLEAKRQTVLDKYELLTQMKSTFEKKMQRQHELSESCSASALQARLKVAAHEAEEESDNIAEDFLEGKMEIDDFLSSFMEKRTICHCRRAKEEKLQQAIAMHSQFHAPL
UniProt Q8N2W9: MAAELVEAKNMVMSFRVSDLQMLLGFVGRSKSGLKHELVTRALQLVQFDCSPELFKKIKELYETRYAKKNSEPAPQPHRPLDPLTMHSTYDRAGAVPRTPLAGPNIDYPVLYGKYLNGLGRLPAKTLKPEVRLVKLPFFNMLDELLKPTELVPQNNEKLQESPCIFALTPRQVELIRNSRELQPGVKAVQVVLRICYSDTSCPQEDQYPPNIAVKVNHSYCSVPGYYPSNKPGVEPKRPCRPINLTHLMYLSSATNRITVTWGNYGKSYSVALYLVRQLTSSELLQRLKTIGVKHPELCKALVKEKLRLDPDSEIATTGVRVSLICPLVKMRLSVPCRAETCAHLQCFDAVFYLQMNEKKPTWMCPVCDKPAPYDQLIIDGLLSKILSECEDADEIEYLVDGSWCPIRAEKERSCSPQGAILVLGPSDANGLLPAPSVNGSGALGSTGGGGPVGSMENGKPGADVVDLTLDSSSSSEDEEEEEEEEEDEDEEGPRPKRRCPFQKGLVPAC
UniProt Q8WUA2: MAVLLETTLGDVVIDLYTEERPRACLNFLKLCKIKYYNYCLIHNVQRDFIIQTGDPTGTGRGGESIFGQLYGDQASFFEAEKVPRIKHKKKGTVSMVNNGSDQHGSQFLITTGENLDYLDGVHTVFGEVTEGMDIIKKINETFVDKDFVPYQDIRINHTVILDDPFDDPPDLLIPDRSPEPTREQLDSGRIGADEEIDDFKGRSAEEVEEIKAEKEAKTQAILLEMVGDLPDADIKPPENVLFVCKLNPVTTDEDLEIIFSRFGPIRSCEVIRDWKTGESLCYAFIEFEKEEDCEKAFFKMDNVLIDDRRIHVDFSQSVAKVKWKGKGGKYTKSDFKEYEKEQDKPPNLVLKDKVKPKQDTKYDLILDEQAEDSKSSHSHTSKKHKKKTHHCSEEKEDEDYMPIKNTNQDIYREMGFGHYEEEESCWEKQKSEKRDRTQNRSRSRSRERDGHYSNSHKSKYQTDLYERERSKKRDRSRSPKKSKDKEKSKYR
UniProt Q8N392: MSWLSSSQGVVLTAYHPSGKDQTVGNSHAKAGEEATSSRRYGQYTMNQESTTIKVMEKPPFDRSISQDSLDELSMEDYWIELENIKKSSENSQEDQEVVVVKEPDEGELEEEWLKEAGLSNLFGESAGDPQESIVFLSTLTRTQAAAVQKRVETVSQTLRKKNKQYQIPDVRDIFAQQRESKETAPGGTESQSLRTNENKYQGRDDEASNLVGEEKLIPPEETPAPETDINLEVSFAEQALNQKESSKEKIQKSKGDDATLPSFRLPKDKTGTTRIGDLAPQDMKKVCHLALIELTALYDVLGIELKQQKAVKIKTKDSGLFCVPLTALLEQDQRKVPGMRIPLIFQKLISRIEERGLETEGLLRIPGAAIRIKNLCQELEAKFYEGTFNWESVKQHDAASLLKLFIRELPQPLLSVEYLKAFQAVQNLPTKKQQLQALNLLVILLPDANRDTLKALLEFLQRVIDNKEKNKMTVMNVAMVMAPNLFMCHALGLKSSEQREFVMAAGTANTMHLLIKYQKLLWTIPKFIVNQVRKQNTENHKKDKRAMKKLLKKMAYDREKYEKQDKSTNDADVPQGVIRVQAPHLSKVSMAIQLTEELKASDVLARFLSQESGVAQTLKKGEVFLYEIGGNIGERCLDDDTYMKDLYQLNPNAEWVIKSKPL
UniProt Q8TBM8: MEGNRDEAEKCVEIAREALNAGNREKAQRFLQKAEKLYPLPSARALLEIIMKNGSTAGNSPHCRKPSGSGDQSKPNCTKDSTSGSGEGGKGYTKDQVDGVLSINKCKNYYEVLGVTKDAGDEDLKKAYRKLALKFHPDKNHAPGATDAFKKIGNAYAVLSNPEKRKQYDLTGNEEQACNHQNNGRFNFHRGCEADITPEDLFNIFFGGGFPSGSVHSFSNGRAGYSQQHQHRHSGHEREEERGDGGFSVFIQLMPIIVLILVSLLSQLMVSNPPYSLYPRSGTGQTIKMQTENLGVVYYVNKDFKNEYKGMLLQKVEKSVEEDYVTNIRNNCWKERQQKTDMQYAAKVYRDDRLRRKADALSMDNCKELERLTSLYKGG
UniProt Q8NG68: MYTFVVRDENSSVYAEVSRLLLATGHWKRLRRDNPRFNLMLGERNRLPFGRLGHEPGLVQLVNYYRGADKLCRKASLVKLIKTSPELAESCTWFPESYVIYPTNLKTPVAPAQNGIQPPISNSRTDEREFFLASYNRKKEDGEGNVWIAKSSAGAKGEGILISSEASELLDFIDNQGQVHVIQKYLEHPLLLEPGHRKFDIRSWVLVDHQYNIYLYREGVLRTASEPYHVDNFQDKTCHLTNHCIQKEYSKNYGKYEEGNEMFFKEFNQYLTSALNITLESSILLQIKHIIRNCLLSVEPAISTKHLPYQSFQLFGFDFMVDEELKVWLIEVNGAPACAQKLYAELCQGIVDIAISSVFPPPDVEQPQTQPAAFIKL
UniProt Q8NEL9: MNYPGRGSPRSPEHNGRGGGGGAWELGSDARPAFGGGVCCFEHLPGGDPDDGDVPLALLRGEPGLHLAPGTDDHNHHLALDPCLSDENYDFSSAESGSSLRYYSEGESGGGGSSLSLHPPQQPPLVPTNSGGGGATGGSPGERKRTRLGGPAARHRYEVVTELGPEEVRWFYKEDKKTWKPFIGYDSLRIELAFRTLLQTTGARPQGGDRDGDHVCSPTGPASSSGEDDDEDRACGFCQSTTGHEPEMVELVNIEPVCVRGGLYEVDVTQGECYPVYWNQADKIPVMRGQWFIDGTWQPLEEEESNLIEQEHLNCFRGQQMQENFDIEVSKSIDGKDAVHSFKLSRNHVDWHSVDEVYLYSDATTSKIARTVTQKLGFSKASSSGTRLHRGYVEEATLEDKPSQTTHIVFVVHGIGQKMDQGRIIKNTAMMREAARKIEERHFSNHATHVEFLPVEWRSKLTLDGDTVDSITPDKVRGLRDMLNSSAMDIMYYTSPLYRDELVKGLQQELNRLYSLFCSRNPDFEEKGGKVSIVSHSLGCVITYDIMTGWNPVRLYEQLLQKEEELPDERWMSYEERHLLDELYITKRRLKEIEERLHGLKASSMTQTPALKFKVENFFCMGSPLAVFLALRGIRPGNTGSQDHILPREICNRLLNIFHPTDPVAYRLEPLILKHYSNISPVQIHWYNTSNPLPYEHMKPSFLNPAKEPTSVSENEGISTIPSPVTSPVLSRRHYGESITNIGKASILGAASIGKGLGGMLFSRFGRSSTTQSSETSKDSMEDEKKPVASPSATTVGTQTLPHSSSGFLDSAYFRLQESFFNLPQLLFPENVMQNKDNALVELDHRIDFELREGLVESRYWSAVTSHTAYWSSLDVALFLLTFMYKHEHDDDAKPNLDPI
UniProt Q8ND56: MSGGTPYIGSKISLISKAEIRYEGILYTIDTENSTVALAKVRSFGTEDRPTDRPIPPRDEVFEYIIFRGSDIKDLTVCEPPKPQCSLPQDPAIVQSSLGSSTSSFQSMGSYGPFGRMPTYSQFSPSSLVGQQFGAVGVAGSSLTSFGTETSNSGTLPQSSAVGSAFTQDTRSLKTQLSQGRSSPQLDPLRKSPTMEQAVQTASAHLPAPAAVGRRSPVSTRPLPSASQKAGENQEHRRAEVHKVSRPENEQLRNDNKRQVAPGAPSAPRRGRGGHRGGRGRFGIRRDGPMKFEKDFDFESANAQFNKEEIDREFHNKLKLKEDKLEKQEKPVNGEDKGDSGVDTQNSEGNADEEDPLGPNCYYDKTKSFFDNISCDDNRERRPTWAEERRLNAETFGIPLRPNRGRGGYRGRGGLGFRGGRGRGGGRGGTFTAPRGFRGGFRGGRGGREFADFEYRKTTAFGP
UniProt Q8N201, whole entry, looked up: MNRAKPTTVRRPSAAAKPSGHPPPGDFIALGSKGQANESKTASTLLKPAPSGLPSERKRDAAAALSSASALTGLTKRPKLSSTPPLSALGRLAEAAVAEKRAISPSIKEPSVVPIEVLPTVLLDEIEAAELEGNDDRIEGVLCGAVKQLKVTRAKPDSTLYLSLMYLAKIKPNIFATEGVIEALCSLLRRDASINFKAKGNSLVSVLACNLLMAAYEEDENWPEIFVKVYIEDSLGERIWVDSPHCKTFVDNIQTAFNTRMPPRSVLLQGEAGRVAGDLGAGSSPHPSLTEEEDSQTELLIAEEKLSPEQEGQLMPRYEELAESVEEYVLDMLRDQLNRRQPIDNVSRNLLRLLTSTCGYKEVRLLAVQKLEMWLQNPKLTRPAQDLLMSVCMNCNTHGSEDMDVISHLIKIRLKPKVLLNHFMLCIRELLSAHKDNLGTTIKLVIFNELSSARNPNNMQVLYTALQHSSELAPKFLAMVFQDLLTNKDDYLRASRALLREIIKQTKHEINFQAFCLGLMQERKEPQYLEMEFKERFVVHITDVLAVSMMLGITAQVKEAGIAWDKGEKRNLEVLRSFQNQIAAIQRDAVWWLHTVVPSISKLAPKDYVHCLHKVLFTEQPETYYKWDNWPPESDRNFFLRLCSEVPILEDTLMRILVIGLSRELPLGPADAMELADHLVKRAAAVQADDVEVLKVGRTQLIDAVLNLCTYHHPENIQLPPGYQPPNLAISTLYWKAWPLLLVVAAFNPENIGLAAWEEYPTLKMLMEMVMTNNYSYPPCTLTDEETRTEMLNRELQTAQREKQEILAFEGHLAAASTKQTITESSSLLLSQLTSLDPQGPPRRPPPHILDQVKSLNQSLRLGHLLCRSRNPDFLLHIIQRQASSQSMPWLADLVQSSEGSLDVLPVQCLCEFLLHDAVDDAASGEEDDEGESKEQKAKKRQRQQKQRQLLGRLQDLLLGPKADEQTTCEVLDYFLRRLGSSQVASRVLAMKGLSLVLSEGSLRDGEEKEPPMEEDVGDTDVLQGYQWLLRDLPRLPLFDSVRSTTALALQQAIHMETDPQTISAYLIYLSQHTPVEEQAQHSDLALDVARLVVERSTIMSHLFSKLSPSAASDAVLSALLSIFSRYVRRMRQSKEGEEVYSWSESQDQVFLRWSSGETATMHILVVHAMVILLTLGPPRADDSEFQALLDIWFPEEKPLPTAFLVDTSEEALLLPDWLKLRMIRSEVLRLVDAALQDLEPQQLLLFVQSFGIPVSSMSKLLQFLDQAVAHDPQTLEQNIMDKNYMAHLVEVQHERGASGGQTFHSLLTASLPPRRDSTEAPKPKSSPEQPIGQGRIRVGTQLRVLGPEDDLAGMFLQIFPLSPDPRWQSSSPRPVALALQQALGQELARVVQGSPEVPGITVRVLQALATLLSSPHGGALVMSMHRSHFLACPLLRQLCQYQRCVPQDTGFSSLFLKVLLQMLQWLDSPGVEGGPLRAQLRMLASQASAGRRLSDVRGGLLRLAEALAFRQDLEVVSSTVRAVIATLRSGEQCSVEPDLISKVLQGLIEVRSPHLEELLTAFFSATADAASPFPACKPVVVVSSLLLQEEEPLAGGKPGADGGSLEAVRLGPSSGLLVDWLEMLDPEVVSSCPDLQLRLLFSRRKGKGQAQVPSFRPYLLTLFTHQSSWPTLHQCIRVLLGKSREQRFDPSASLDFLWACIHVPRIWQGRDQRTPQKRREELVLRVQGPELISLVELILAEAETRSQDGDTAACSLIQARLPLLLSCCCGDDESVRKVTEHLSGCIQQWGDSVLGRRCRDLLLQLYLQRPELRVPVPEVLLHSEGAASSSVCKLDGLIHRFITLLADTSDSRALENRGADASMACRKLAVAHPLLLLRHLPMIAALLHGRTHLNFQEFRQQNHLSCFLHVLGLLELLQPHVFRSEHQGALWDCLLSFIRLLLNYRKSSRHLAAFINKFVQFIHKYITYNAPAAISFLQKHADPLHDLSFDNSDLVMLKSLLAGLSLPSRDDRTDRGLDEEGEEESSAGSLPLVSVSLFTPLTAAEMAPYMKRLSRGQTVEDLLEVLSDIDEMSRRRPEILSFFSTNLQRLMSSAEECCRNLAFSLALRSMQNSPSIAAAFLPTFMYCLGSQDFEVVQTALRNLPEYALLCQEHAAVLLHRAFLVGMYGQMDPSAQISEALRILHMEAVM

Compound: COC(=O)/C=C/c1ccccc1 [methyl cinnamate]
Experiment: log2 ratio of iodoacetamide-alkyne labeling of the cysteine site, DMSO over compound (competition); higher = stronger covalent engagement of the cysteine by the compound, active = 1 or more
Settings: 500 µM; treatment time 1 h; system: HEK293T cell lysate
Method in brief: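 Reporter intensities give each cysteine's log2 competition ratio as the mean of control channels over the mean of compound channels. The samples were HEK293T lysate (2 mg/mL) given vehicle or electrophile (500 µM, 1 h, ambient temperature), then iodoacetamide alkyne (1 h), followed by click coupling to sCIP-TMT reagents, pooling, trypsin digestion overnight at 37 °C, streptavidin enrichment, acid elution, Orbitrap Eclipse LC-MS/MS with FAIMS and FragPipe quantification. Duplicate channels and three replicates were run, and cysteines quantified in only one replicate were discarded.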

| Target | log2 ratio of iodoacetamide-alkyne labeling |
| --- | --- |
| EXOC6 C28 (UniProt Q8TAG9) | inactive: 0.166 |
| VPS37A C325 (UniProt Q8NEZ2) | inactive: 0.186 |
| PIAS4 C164 (UniProt Q8N2W9) | inactive: 0.114 |
| BCL7C C211 (UniProt Q8WUZ0) | inactive: 0.167 |
| PPIL4 C426 (UniProt Q8WUA2) | inactive: 0.13 |
| UniProt Q8WXA9_C494 | inactive: 0.291 |
| ARHGAP18 C323 (UniProt Q8N392) | inactive: 0.0712 |
| DNAJB14 C77 (UniProt Q8TBM8) | inactive: 0.491 |
| UniProt Q8WZA9_C158 | inactive: 0.232 |
| TTL C91 (UniProt Q8NG68) | inactive: 0.0628 |
| UniProt Q8N1G2_C9 | inactive: 0.611 |
| DDHD1 C83 (UniProt Q8NEL9) | inactive: -0.0269 |
| LSM14A C85 (UniProt Q8ND56) | inactive: -0.0554 |
| INTS1 C643 (UniProt Q8N201) | inactive: 0.158 |
| SRBD1 C120 (UniProt Q8N5C6) | inactive: 0.217 |
